Counter-ions that a name gives are not always drawn. The list shows a part of the results. The calls rarely recur for the same compound in another form.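 Kinases were expressed as nanoluciferase fusions in K562 cells and luminescence was read every 4 h between 2 and 18 h as percent of control, DMSO set to 100% and a positive control to 0%. A time point counts as decreased when the signal drops significantly (2 sigma). The hit call is the authors' own, does not follow from the count of time points alone, and its rule is not shown.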
biological target: CAMK2G (UniProt Q13555); assay: kinase-Nluc reporter destabilization hit call (1 = scored as downregulated) (binary); higher = compound decreases kinase abundance; conditions: K562; 2-18 h

The chains behind the UniProt entries cited, without tags or fusion partners. Where a name states a change or a piece, a line headed by the entry shows the natural chain unless it says otherwise.
UniProt Q13555: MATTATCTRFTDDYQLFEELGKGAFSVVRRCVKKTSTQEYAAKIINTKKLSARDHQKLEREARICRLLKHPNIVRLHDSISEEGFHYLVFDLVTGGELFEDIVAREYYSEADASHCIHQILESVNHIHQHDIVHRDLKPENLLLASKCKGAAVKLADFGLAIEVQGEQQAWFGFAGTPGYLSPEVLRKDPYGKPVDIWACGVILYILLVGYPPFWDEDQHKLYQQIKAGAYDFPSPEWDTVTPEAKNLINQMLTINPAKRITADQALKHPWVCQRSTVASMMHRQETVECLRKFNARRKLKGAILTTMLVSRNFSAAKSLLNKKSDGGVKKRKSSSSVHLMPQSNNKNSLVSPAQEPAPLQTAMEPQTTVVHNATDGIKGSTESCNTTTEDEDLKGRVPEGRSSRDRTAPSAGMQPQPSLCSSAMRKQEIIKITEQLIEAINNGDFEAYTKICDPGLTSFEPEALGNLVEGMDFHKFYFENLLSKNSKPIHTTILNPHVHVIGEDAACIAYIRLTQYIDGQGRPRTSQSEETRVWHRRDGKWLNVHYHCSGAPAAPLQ

kinase-Nluc reporter destabilization hit call, inactive:
O=c1cc(O)cc(/C=C/c2ccc(O)c(O)c2)o1 [Hispidin] (10 µM) 0, CC1CN(C(=O)Nc2ccc(Cl)c(Cl)c2)C(=Nc2ccc(F)cc2)S1 (stereo not given) (10 µM) 0, COc1cc2c[n+](C)c3c4cc5c(cc4ccc3c2cc1OC)OCO5 [Nitidine (chloride)] (2 µM) 0, Cc1c(CN2CCN(S(C)(=O)=O)CC2)sc2c(N3CCOCC3)nc(-c3cnc(N)nc3)nc12 (2.5 µM) 0, Cc1cc([C@H](C)Nc2ccccc2)c2oc(N3CCOCC3)cc(=O)c2c1 (10 µM) 0, O=C(CNC(=O)c1ccc(-c2ccccc2)cc1)NC1CCCc2ccccc21 (stereo not given) [TAO Kinase inhibitor 1] (10 µM) 0, Cn1cc(-c2ccc(CNc3cc(-c4cnc5cc(OCCCN6CCCC6)ccn45)ncn3)cc2)cn1 (10 µM) 0, Cc1ccc(S(=O)(=O)Nc2ccccc2C=Nc2ccccc2NS(=O)(=O)c2ccc(C)cc2)cc1 (10 µM) 0, O=C(/C=C/c1ccc(O)c(O)c1)c1ccc(O[C@@H]2O[C@H](CO)[C@@H](O)[C@H](O)[C@H]2O)c(O)c1O [Marein] (10 µM) 0, O=C(NCCCNc1nc(Nc2cccc(NC(=O)N3CCCC3)c2)ncc1I)c1cccs1 (2.5 µM) 0, CN(CCNc1ccc2ncc(-c3ccc(C(N)=O)cc3)n2n1)C(=O)OC(C)(C)C (10 µM) 0, C=C(C)C(=O)Nc1cccc(-c2ncnc3[nH]cc(C(=O)OCC)c23)c1 (10 µM) 0, COc1ccc(C(=C2C(=O)Nc3ccccc32)c2ccc(OC)cc2)cc1 (10 µM) 0, CN1CCN(c2ccc(C(=O)Nc3cc(-c4cccc(NS(=O)(=O)c5ccccc5)c4)[nH]n3)cc2)CC1 [BPR1J-097 Hydrochloride] (2.5 µM) 0, C=CC(=O)Nc1cc2c(Nc3ccc(OCc4ccccn4)c(Cl)c3)ncnc2cc1OCCN1CCOCC1 (10 µM) 0, Cc1c(NC(=O)OC[C@@H]2COCCN2)cn2ncnc(Nc3ccc4c(cnn4Cc4cccc(F)c4)c3)c12 (10 µM) 0, CNc1nc(Nc2cnn(C3CCN(C4COC4)CC3F)c2Cl)ncc1C(F)(F)F (stereo not given) (10 µM) 0, O=C(NCCO)c1ccc2c(c1)nc(Nc1cccc(Cl)c1)c1ccncc12 [CK2 inhibitor 2] (10 µM) 0, N#CC(c1ccnc(NCCc2cccnc2)n1)c1nc2ccccc2s1 (stereo not given) (10 µM) 0, CCN(CC)S(=O)(=O)c1ccc(OC)c(N2CCN(C(=O)c3ccc(F)cc3C(F)(F)F)CC2)c1 (10 µM) 0, CO[C@H]1C[C@@H]2CC[C@@H](C)[C@@](O)(O2)C(=O)C(=O)N2CCCC[C@H]2C(=O)O[C@H]([C@H](C)C[C@@H]2CC[C@@H](O)[C@H](OC)C2)CC(=O)[C@H](C)/C=C(\C)[C@@H](O)[C@@H](OC)C(=O)[C@H](C)C[C@H](C)/C=C/C=C/C=C/1C [Rapamycin] (10 µM) 0, CN(C)CCN(Cc1ccc(Cl)cc1)c1ccccn1 [Chloropyramine hydrochloride] (10 µM) 0, O=C(Nc1ccc(F)cc1F)[C@H](NC(=S)Nc1cc(C(F)(F)F)cc(C(F)(F)F)c1)c1ccccc1 (2.5 µM) 0, Cc1ccc(Nc2cc(-c3cccc(N4C(=O)c5ccccc5C4=O)c3)ncn2)cc1NS(C)(=O)=O (10 µM) 0, CC(C)(C)c1ccc(S(=O)(=O)Nc2ccc(-n3ccnc3)cc2)cc1 (10 µM) 0, CCc1cc(O)c(F)cc1-c1ccc2c(-c3nc4c([nH]3)CN(C3CCN(C)CC3)CC4)n[nH]c2c1 [JAK-IN-5 (hydrochloride)] (2 µM) 0, CC1=C2C(=O)O[C@@H](c3ccoc3)[C@]2(C)CCC1 [Fraxinellone] (10 µM) 0, COc1cc(C(N)=O)nc(-c2cccc(C#C[C@]3(O)CCN(C)C3=O)c2)c1 (10 µM) 0, COc1ncc(-c2nc(N3CCOCC3)nc3c(CN4CCC(C(C)(C)O)CC4)cc(F)cc23)cc1NS(C)(=O)=O [Linperlisib] (10 µM) 0, Fc1ccc(-c2nc(-c3ccccc3F)[nH]c2-c2ccncc2)cc1 (2.5 µM) 0

From the supplement of paper PMC12823440, “Inhibitors supercharge kinase turnover through native proteolytic circuits” (Nature, 2025)
